Measured values reported in patent publication US5968513A (priority 1996, dated 1999).
Entries after “also recorded” stand apart in the source; their conditions may differ. Part of at least one peptide drawing is inferred or uncertain, most often the ends. Some compounds share one wording; it may come from a single statement. Positions of bridges follow the written chain, without caps; N, C: chain ends. Residues, ends and D or L forms follow the SMILES beside them. No end group written: not given here.

Tested on: Hematopoietic progenitor cells from normal bone marrow and cord blood
Test: Clonogenic (colony) assays of hematopoietic progenitor cells in methylcellulose (CFU-MIX, BFU-e, CFU-GM)
Assay type: cell-based, human
Conditions: hCG preparations 200 IU/ml, subunits and peptides 100 μg/ml, 10 days, aggregates of more than 50 cells counted
Text: Hematopoietic progenitor cells (2×10^5 cell/ml) were isolated from normal bone marrow and cord blood and seeded in methylcellulose. […] Aggregates containing more than 50 cells after 10 days of culture were counted as colonies.

Compound	growth of hematopoietic progenitors (pro-hematopoietic activity, colony numbers)	growth of hematopoietic progenitors (pro-hematopoietic activity, colony numbers) (listed as satellin B)
TCDDPRFQDSS [β-hCG peptide 109-119]	directly promoted; also recorded: mimicked	some activity
RPRCRPINATL [β-hCG peptide 6-16, reference compound]	little or no effects	–
CC(C)C[C@@H]1NC(=O)[C@@H](N)CSSC[C@@H](C(=O)O)NC(=O)[C@H](C(C)C)NC(=O)[C@H](C(C)C)NC(=O)[C@H](CCC(N)=O)NC(=O)[C@@H]2CCCN2C(=O)[C@H](CC(C)C)NC(=O)[C@H](C)NC(=O)[C@@H]2CCCN2C(=O)[C@H](CC(C)C)NC(=O)[C@H](C(C)C)NC(=O)CNC(=O)[C@H](CCC(N)=O)NC1=O (H-CLQGVLPALPQVVC-OH; disulfide 1-14)	directly promoted	–
LQGVLPALPQVVC [β-hCG peptide 45-57]	directly promoted; also recorded: mimicked	–
